Source: patent US20070224273A1, “Multifunctional Supramolecular Hydrogels as Biomaterials” (priority 2004, published 2007)
At least one structure is not confirmed: it was looked up by name or label, or the drawing left a doubt.

Tests used:
[1] = system: C600 (β-lactamase negative E. coli control); test: Cell lysate added to solution of precursor 3, sample A; assay type: biochemical; conditions: precursor 3 0.35 wt %
Method: (§1) To evaluate whether precursor 3 would respond to β-lactamases in bacteria, solution of precursor 3 was treated with sonicated lysates of E. coli.

[2] = system: JP995 (β-lactamase negative E. coli control); test: Cell lysate added to solution of precursor 3, sample D; assay type: biochemical; conditions: precursor 3 0.35 wt %
Method: as §1

**Q.** Which results are given for `NCC(=O)N[C@@H]1C(=O)N2C(C(=O)O)=C(CSCCNC(=O)[C@H](Cc3ccccc3)NC(=O)[C@H](Cc3ccccc3)NC(=O)Cc3ccc4ccccc4c3)CS[C@H]12` [Precursor 3]?
**A.** Gelation [1]: −; Gelation [2]: −
